Experimental data published in patent US20180072988A1, “GENERATION OF FUNCTIONAL CELLS FROM STEM CELLS” (priority 2015, published 2018).
“Also recorded” adds a separate entry of the source. At least one compound was matched to its structure with a doubt left.

Columns and labels:
Assay type in all cases: cell-based, human
[1] = system: iENs synaptically connected with ChETA-expressing iGNs; test: Optogenetically evoked IPSC recording in iENs co-cultured with ChETA-expressing iGNs; conditions: bicuculline 20 μM
[2] = system: iGNs; test: Whole cell patch clamp of iGNs: GABA-evoked responses and spontaneous IPSCs; conditions: bicuculline 20 μM
Description: Whole cell patch clamp recordings were performed on iGNs and iENs with voltage or current clamp mode. Recording pipettes with resistances of 4-6 MΩ were filled with an internal solution containing (in mM): 120 K-gluconate, 9 KCl, 10 KOH, 3.48 MgCl2, 4 NaCl, 10 HEPES, 4 Na2ATP, 0.4 Na3GTP, 17.5 Sucrose, 0.5 EGTA with an osmolarity of 290 mOsm and pH 7.3. Neurons were bathed in the extracellular solution containing (in mM): 124 NaCl, 3 KCl, 1.3 NaH2PO4, 10 dextrose, 2 MgCl2, 2 CaCl2, 10 HEPES at pH 7.4. Bicuculline (20 μM, Tocris) and CNQX (50 μM, Tocris) were used to block inhibitory or excitatory synaptic responses, respectively. […] Recordings with serial resistance higher than 20 MO or leaking current more than 200 pA were not analyzed. Data were analyzed offline using the ClampFit (Molecular Devices) or MiniAnalysis (Synaptosoft). […] The reversal potential for ions was −49 mV in our recording system, calculated using the simplified Nernst equation: E(Cl^−)=−59*log(extracellular[Cl^−]/intracellular[Cl^−]),(T=25° C.). Spontaneous action potentials were recorded at I=0 mode. […]
For chemical GABA evoked IPSC recording, tip of glass pipettes filled with freshly made GABA (1 mM, Sigma) was put approximately 100 μm away from soma along dendrites of recorded neurons. […]

[3] = system: mixed iENs/iGNs; test: Spontaneous PSC recording from iGNs in mixed iENs/iGNs co-culture; conditions: 56 dpt, -70 mV; iGNs 20% / iENs 80%
Description: Whole cell patch clamp recordings were performed on iGNs and iENs with voltage or current clamp mode. Recording pipettes with resistances of 4-6 MΩ were filled with an internal solution containing (in mM): 120 K-gluconate, 9 KCl, 10 KOH, 3.48 MgCl2, 4 NaCl, 10 HEPES, 4 Na2ATP, 0.4 Na3GTP, 17.5 Sucrose, 0.5 EGTA with an osmolarity of 290 mOsm and pH 7.3. Neurons were bathed in the extracellular solution containing (in mM): 124 NaCl, 3 KCl, 1.3 NaH2PO4, 10 dextrose, 2 MgCl2, 2 CaCl2, 10 HEPES at pH 7.4. Bicuculline (20 μM, Tocris) and CNQX (50 μM, Tocris) were used to block inhibitory or excitatory synaptic responses, respectively. Neurons were held at −70 mV except otherwise indicated or at required currents using an Axon MultiClamp 700B amplifier (Axon Instruments). Signal was sampled at 40 kHz and filtered at 2 kHz (Digidata 1440A, Molecular Devices). Recordings with serial resistance higher than 20 MO or leaking current more than 200 pA were not analyzed. Data were analyzed offline using the ClampFit (Molecular Devices) or MiniAnalysis (Synaptosoft). […] The reversal potential for ions was −49 mV in our recording system, calculated using the simplified Nernst equation: E(Cl^−)=−59*log(extracellular[Cl^−]/intracellular[Cl^−]),(T=25° C.). Spontaneous action potentials were recorded at I=0 mode. […]

[4] = system: iENs; test: Calcium imaging of network activity in iENs; conditions: homogenous population of iENs
[5] = system: mixed iENs/iGNs network; test: Calcium imaging of network activity in mixed iENs/iGNs; conditions: 80% iENs and 20% iGNs

Compound: CN1CCc2cc3c(cc2[C@H]1[C@@H]1OC(=O)c2c1ccc1c2OCO1)OCO3 [bicuculline]
- light-evoked synaptic responses (IPSCs) [1]: completely inhibited; also recorded: completely blocked the evoked response
- spontaneous IPSCs (sIPSCs) in iGNs, block ([2]; 42 to 56 dpt): completely inhibited; also recorded: blocked
- exogenous GABA-evoked response (IPSCs) in iGNs, block ([2]; GABA 1 mM, 100 ms): completely blocked
- sIPSCs (slow-decay PSCs) in iGNs of mixed culture, block [3]: eliminated the slow-decay PSCs; also recorded: blocked
- network activity (synchronization of Ca2+ transients) [4]: did not change the network activity
- network activity (synchronization, bursts of Ca2+ transients) [5]: increased the synchronization of the activity of the overall network
